We go through 6 sequences from publication PMC8289069, “Functional requirement of terminal inverted repeats for efficient ProtoRAG activity reveals the early evolution of V(D)J recombination”.

The test system of data set [1] is BbRAG1C + BbRAG2L. In words: EMSA. Particulars: 1.5 mM Ca2+, HMGB1; EMSA: 25 mM MOPS pH 7.0, 50 mM KCl, 2 mM DTT, 1.5 mM CaCl2, 2.5% glycerol, 50 nM HMGB1, 100 nM ss nonspecific oligo, ~50 nM each RAG, 25 C 20 min; recombinant protein; protein details: N-terminal MBP,N-terminal MBP; label: 5' biotin on strand 1.
Data set [2] relates to BbRAG1D + BbRAG2L. The experiment in a line: EMSA. The settings on record: 1.5 mM Ca2+, HMGB1, slightly enhanced vs BbRAG1C; EMSA: 25 mM MOPS pH 7.0, 50 mM KCl, 2 mM DTT, 1.5 mM CaCl2, 2.5% glycerol, 50 nM HMGB1, 100 nM ss nonspecific oligo, ~50 nM each RAG, 25 C 20 min; recombinant protein; protein details: N-terminal MBP,N-terminal MBP; label: 5' biotin on strand 1.
A further data set deals with BbRAG1L + BbRAG2L. In words: EMSA. Particulars: 1.5 mM Ca2+, HMGB1; EMSA: 25 mM MOPS pH 7.0, 50 mM KCl, 2 mM DTT, 1.5 mM CaCl2, 2.5% glycerol, 50 nM HMGB1, 100 nM ss nonspecific oligo, ~50 nM each RAG, 25 C 20 min; recombinant protein; protein details: N-terminal MBP,N-terminal MBP; label: 5' biotin on strand 1.
Data set [3] relates to BbRAG1C + BbRAG2L. The experiment in a line: pull-down. Particulars: 1.5 mM Ca2+; pull-down: 50 mM Tris pH 7.5, 150 mM NaCl, 0.5% NP40, 5% glycerol, 1.5 mM CaCl2, 4 C; recombinant protein; protein details: N-terminal MBP,N-terminal MBP; label: 5' biotin on strand 1.
In data set [4] the test system is BbRAG1D + BbRAG2L. The experiment in a line: pull-down. The settings on record: 1.5 mM Ca2+; pull-down: 50 mM Tris pH 7.5, 150 mM NaCl, 0.5% NP40, 5% glycerol, 1.5 mM CaCl2, 4 C; recombinant protein; protein details: N-terminal MBP,N-terminal MBP; label: 5' biotin on strand 1.
The test system of another data set is BbRAG1E + BbRAG2L. In words: pull-down. Particulars: 1.5 mM Ca2+; pull-down: 50 mM Tris pH 7.5, 150 mM NaCl, 0.5% NP40, 5% glycerol, 1.5 mM CaCl2, 4 C; protein in a lysate after overexpression; protein details: N-terminal MBP,N-terminal MBP; label: 5' biotin on strand 1.
Data set [5] concerns the target T1, BbRAG1F (UniProt A0A185KID9). In words: pull-down. The settings on record: co-expressed with BbRAG2L, text says NBD* alone interacts weakly (with 'BbRAG1L', apparently 5'TIR); pull-down: 50 mM Tris pH 7.5, 150 mM NaCl, 0.5% NP40, 5% glycerol, 1.5 mM CaCl2, 4 C; recombinant protein; label: 5' biotin on strand 1.
The target in data set [6] is T1, BbRAG1F. In words: DNA-binding assay (type not stated). The settings on record: NBD* alone, nonspecific; recombinant protein; label: 5' biotin on strand 1.
The target of a further data set is T2, mRAG1F (mouse) (UniProt P15919).
T2 sequence (looked up, limits assumed): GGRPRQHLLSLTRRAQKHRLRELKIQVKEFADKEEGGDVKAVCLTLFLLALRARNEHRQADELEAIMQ
In words: DNA-binding assay (type not stated). Particulars: binds 12RSS specifically; recombinant protein; label: 5' biotin on strand 1.

The exact form of at least one protein or probe is not confirmed. For some of these results: Weaker means in comparison with the reference protein, sequence or condition of that experiment. For some of these results: At least one verdict rests on a figure or table, not on a statement of the authors. For some of these results: Protein sequences can lack the tags named with them. For some of these results: At least one result comes from cells or an extract, where the contact may be indirect. For some of these results: A negative result means that nothing was seen under these conditions.

For “CGGACTCAGATCTCGAGCACTATGAAAACTTACGTGTGCATAAGGTCGGCGGCCATCTTGGTAATG (double strand) [5'TIR]”, the binding result in the data set with BbRAG1C + BbRAG2L [1] was “binds”; in the data set on BbRAG1D + BbRAG2L [2] it was “binds”; with BbRAG1L + BbRAG2L, “binds”; in the data set on BbRAG1C + BbRAG2L [3], “binds”; in the data set with BbRAG1D + BbRAG2L [4], “binds”; in the data set on BbRAG1E + BbRAG2L it was “no binding”. The results for the binding result with BbRAG1F [5] and with BbRAG1F [6] were “binds more weakly” and “binds”, respectively.
Regarding “CGGACTCAGATCTCGAGCACTATGAAAACTTACGTGTGCATAAGGTCGGCGGTAATG (double strand) [5'TIR-deltaN]”, the binding result with BbRAG1F [6] is on record as “binds”.
Regarding “CGGACTCAGATCTCGAGTCCAGAAGTCGCTCGACTGTGGTTTAATCGCTTGTAGCGTGGTCTGGTAATG (double strand) [NSP]”, the binding result with BbRAG1D + BbRAG2L [4] and with BbRAG1F [6] was “binds” each time.
Regarding “GATCTGGCCTGTCTTACACAGTGATACAGACCTTACTCTGGCTGCTGCAG (double strand) [12RSS-deltaN]”, the binding result with mRAG1F (mouse) is recorded as “binds more weakly”.
In the case of “GATCTGGCCTGTCTTAGGTCAATGCTGTAGAACTCGTCCTGTACCTGCAG (double strand) [RNSP]”, in the data set with mRAG1F (mouse), the binding result was “binds more weakly”.
With “GGTGGATCCCGGGCCCCACTATGATACTTACGCTATACCCAGCAGTGTCTGGTCGCCATCTTGTAAGAT (double strand) [3'TIR]”, the binding result is on record as “binds” with BbRAG1C + BbRAG2L [1]; “binds” in the data set with BbRAG1D + BbRAG2L [2]; “binds” in the data set on BbRAG1L + BbRAG2L; “binds” in the data set on BbRAG1C + BbRAG2L [3]; “binds” in the data set with BbRAG1D + BbRAG2L [4]; “no binding” in the data set with BbRAG1E + BbRAG2L.
